For at least one compound, name, drawing or mass did not settle the structure.
Test system: microglia
Experiment: Microglial proliferation in the EAE model of multiple sclerosis (2H2O labeling)
Type: in vivo, mouse
Conditions: female C57BL/6 mice, MOG(35-55) immunization; minocycline 45 mg/kg i.p. twice a day for first 3 days, then once a day
Method: FIG. 3 depicts the inhibition of Microglial Proliferation in the experimental autoimmune encephalomyelitis (EAE) model of neuroinflammation. Female c57bl/6 mice were labeled with ^2H2O for 7 days and received either sham or EAE immunizations. EAE was induced by subcutaneous injection of 100 μg synthetic MOG(35-55) peptide emulsified in 0.1 ml complete Freund's adjuvant on day 0. Pertussis toxin (400 ng) was injected intravenously on days 0 and 2. Minocycline (45 mg/kg, i.p.) was dissolved in saline and injected twice a day for the first 3 days, and once a day for the rest of the study. Accutane (30 mg/kg, i.p.) was dissolved in DMSO and injected once a day for the duration of the study. Data represent mean±SD of 5 animals per group. * Indicates significant difference (p<0.0001) between sham and EAE groups treated with vehicle, # indicates significant difference (p<0.0001) between vehicle and drug treated EAE groups. […]
Analysis of cell turnover: GC/MS analysis was used to measure ^2H incorporation from ^2H2O into the deoxyribose moiety of purine deoxyribonucleotides during de novo DNA synthesis. Genomic DNA from microglia was isolated using a DNEasy tissue kit (Qiagen, Valencia, Calif.), and processed and analyzed by GC/MS. […]

Q: How did the “microglial proliferation in the EAE model” value turn out when `CN(C)c1ccc(O)c2c1C[C@H]1C[C@H]3[C@H](N(C)C)C(O)=C(C(N)=O)C(=O)[C@@]3(O)C(O)=C1C2=O` [minocycline] was run?
A: effective in reducing microglial proliferation
